No constants are given. Whether binding was seen depends on the method and setting. Binding seen in cells or lysates may run through a third protein. Some results given as binding are weak or reduced against the parent protein; the word gives no strength.
Biological target: T1, dual-specificity protein phosphatase 1 (rat (endogenous in H9C2)) (UniProt Q64623)
T1 sequence: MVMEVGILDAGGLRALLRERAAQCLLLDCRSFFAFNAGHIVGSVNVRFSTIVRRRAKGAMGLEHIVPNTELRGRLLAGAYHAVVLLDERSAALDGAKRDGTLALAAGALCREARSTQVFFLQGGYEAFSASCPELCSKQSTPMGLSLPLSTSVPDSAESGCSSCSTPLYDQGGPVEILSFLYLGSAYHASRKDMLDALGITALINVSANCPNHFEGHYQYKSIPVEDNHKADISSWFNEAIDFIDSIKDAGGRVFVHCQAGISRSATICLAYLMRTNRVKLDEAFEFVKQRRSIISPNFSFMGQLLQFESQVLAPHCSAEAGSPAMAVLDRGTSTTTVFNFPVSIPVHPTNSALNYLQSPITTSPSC
Assay: co-IP; H9C2 whole-cell lysates incubated with 2 ug anti-TRIM55, anti-DUSP1 or normal IgG and protein G-agarose beads at 4 C overnight; SDS-PAGE and blotting

Chains of the proteins cited; added tags and fusions are not shown.
UniProt Q5PQN5: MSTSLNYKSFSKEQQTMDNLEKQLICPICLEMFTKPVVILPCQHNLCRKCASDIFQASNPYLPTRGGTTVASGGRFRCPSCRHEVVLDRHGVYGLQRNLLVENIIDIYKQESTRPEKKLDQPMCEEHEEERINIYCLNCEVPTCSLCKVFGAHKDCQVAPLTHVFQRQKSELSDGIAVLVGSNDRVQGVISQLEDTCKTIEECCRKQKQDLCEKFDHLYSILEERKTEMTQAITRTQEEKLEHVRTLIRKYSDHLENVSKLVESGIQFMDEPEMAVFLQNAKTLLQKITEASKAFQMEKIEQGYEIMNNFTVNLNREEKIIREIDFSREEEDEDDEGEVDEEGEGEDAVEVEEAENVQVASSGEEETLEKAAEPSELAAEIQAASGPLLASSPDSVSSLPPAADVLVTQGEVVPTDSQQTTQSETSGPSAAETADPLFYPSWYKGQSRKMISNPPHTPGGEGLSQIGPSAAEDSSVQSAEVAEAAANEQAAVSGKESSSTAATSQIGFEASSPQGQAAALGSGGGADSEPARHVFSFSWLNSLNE

Substance: TRIM55 (from UniProt Q5PQN5 1-545)
- binding: binds

Reference: PMC7288954
